# Experimental data taken from PubChem BioAssay AID1347076 (National Center for Advancing Translational Sciences (NCATS), 2019).
# The whole screen tested about 400,000 compounds, of which about 13,000 (3.2%) were called active. This list was built around the results that the source calls inconclusive (neither active nor inactive); the mix of calls is not that of the screen. The call rests on the fitted dose curve; in most records, active means well fitted cell-killing curve with a large enough effect; inconclusive means small, poorly fitted or top-dose-only effect, or effect the other way; inactive means flat fitted curve, though single readings scatter. Where the call is inconclusive, the potency comes from a doubtful curve fit.
# Experiment: qHTS assay for MDR1-selective chemotherapeutics: Primary screen using the drug-selected MDR subline cells KB-V1; further: nearly all actives have a fitted effect of over 60% in size
# Conditions: KB-V1 MDR cells viability, CellTiter-Glo, 72 h; activity change, negative = cytotoxicity: at 46.1 µM (top of the series)
# How it was run: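 Luminescent ATP read-out (CellTiter-Glo, 10 min) measures survival of drug-selected KB-V1 MDR cells after 72 h, 37 degrees C compound exposure. Medium: phenol-red-free DMEM, 10% FBS. Values from fitted concentration-response curves.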
# On the % scale 0 is the no-effect control and ±100 the full control effect; potency means the concentration at half of the fitted maximal effect.
Compound,Potency,"activity change, negative = cytotoxicity"
CCc1ccc(/C=N/NC(=O)c2c[nH]c3ccccc23)s1,"inconclusive: 18.4 µM [cytotoxic, single point]",–
c1ccc([C@H]2CN3C(=N2)Sc2ccccc23)cc1,inactive,–
CC1(C)CC(=O)c2cc(OCC(=O)N3CCCCCC3)ccc2O1,active: 18.4 µM,–
Cc1ccc(NC(=O)Cn2c(=O)c(C(F)(F)F)nc3ccccc32)cc1C,inactive,–
Cc1sc2nc(SCc3ccc(C(=O)O)cc3)n(Cc3ccco3)c(=O)c2c1C,inactive,–
O=C(CN(Cc1ccccc1)S(=O)(=O)c1ccc2c(c1)OCCO2)N/N=C/c1cccc(Br)c1,active: 18.4 µM,–
CCOC(=O)c1ccccc1NC(=O)Cn1nnc2sc3c(c2c1=O)CCCC3,inactive,–
Cc1ccc(C(C(=O)NC2CCCCC2)N(C)Cc2ccccc2)cc1 (stereo not drawn),"inconclusive: 20.6 µM [cytotoxic, single point]",–
CCN(CC)CCOC(=O)c1ccc(NC(=O)CCNC(=O)Cn2ccc3ccccc3c2=O)cc1,inactive,–
N#CCc1ccc(OCCCN2CCC(C(O)(c3ccccc3)c3ccccc3)CC2)cc1,active: 18.4 µM,–
CCN(C(=O)COC(=O)c1ccc(C)c(S(=O)(=O)N2CCOCC2)c1)C1CCS(=O)(=O)C1 (stereo not drawn),"inconclusive: 29.1 µM [rising, single point]",–
COc1cccc(CNC(=O)Cn2ccc3cc(S(=O)(=O)N4CCCCCC4)ccc32)c1OC,inactive,–
COc1ccc(CCN(C)C(=O)c2cccc(S(=O)(=O)N3CCN(c4ccc(F)cc4)CC3)c2)cc1OC,–,inconclusive: -23.8%
CCCCOc1ccc2c(C)cc(=O)oc2c1OCCCC,"inconclusive: 3.26 µM [cytotoxic, full curve]",–
Cc1cc(C)n2c(NCc3ccccc3)c(CCc3ccccc3)nc2n1,"inconclusive: 20.6 µM [cytotoxic, single point]",–
CCC(C)(C(=O)NC1CCCCC1)N(C)C(=O)c1ccc2c(c1)OCO2 (stereo not drawn),"inconclusive: 9.2 µM [cytotoxic, partial curve]",–
CC(OC(=O)c1ccc(NC(=O)CC#N)cc1)C(=O)Nc1ccc(S(=O)(=O)N2CCCC2)cc1 (stereo not drawn),inactive,–
Cc1ccc(N2C(=O)N(c3ccc(C)cc3)C3CS(=O)(=O)CC32)cc1 (stereo not drawn),–,inconclusive: -20.9%
CCOC(=O)N1CCC(NC(=O)c2cc(C(=O)NC3CCN(Cc4ccccc4)CC3)ccc2CO)CC1,"inconclusive: 9.2 µM [rising, partial curve, poor fit]",–
O=C1c2ccccc2C2N1CCCN2C(=O)c1sc2ccccc2c1Cl (stereo not drawn),"inconclusive: 7.31 µM [cytotoxic, partial curve]",–
CC(OC(=O)c1ccc2c(c1)OCCO2)C(=O)NC1CCCCC1C (stereo not drawn),"inconclusive: 29.1 µM [cytotoxic, single point]",–
CCCN1CCN(C(=O)C2CCN(S(=O)(=O)c3c(C)noc3/C=C/c3ccc(C)cc3)CC2)CC1,"inconclusive: 29.1 µM [cytotoxic, single point]",–
O=C(CCSc1nnc(-c2ccncc2)o1)Nc1ccccc1,"inconclusive: 25.9 µM [cytotoxic, partial curve, poor fit]",–

Compound,Potency,"activity change, negative = cytotoxicity"
CCOc1ccc(NC(=O)c2oc3ccccc3c2NC(=O)C2CCCCC2)cc1,"inconclusive: 18.4 µM [rising, partial curve]",–
CCn1c2ccccc2c2cc(NC(=O)CSc3nnc(-c4ccccc4)o3)ccc21,"inconclusive: 29.1 µM [cytotoxic, single point]",–
Cn1cc(-c2cc3n(n2)CCC(=O)N3CCCC(=O)NCc2ccc(F)cc2)c2ccccc21,inactive,–
O=C(COC(=O)c1ccc[n+]([O-])c1)Nc1ccc([N+](=O)[O-])cc1C(F)(F)F,inactive,–
CCN1C(=O)CCN(C2CCCC2)c2nc(Nc3ccc(C(=O)NC4CCN(C)CC4)cc3OC)ncc21,inactive,–
Cc1ccc(NC(=O)CCN2C(=O)NC3(CCCC3)C2=O)cc1S(=O)(=O)N1CCOCC1,"inconclusive: 29.1 µM [rising, single point]",–
O=C(Nc1nc(-c2ccccc2)cs1)C1CCCCN1S(=O)(=O)c1ccc(Cl)cc1 (stereo not drawn),active: 13 µM,–
CCOC(=O)c1ccccc1Nc1nc2ccc(C)cc2n2nnnc12,inactive,–
Cc1ccc(CSCC(=O)N(C)CC(=O)Nc2c(Cl)cccc2Cl)cc1,"inconclusive: 8.2 µM [cytotoxic, partial curve]",–
COc1cccc(NC(=S)NC(=O)c2cccnc2)c1,"inconclusive: 29.1 µM [rising, single point]",–
Cc1ccc(C(=O)N/C(=C/c2ccco2)C(=O)NCCc2c[nH]c3ccccc23)cc1,"inconclusive: 20.6 µM [cytotoxic, partial curve, poor fit]",–
CCNC(=O)NC(=O)C(C)OC(=O)CNS(=O)(=O)c1c(Cl)cc(Br)cc1Cl (stereo not drawn),"inconclusive: 20.6 µM [rising, single point]",–
COc1ccc(NS(=O)(=O)c2ccc(-c3cnc(C4CC4)o3)cc2)cc1OC,"inconclusive: 18.4 µM [cytotoxic, partial curve]",–
O=C(O)c1ccccc1Nc1ccc2nonc2c1[N+](=O)[O-],"inconclusive: 20.6 µM [rising, single point]",–
CCN(CC(=O)Nc1ccccc1C(F)(F)F)C(=O)CCSc1ccc(F)cc1,"inconclusive: 11.6 µM [cytotoxic, partial curve]",–
COC(=O)Cc1ccc(NC(=O)c2ccc3c(c2)C(=O)N(Cc2cccnc2)C3=O)cc1,inactive,–
COc1ccc(-c2ccc(SCC(=O)NCc3ccco3)nn2)cc1,"inconclusive: 16.4 µM [cytotoxic, single point]",–
O=C(CSc1nnc(CNC(=O)c2cccc(C(F)(F)F)c2)o1)NCC1CCCO1 (stereo not drawn),–,inconclusive: 10%
Cc1ncc([N+](=O)[O-])n1CC(=O)Nc1ccc(F)cc1F,inactive,–
O=C(CN1CCN(Cc2ccccc2)CC1)N/N=C/c1ccccc1F,inactive,–
Cc1cccc(OCC(=O)NCC(=O)N/N=C/c2ccc(N(C)C)cc2)c1,inactive,–
O=C1CSC(c2ccc([N+](=O)[O-])cc2)N1c1ccc(O)cc1 (stereo not drawn),"inconclusive: 29.1 µM [cytotoxic, single point]",–
COc1ccc(-c2c(C)nc3c(-c4ccsc4)cnn3c2N)cc1,"inconclusive: 20.6 µM [rising, single point]",–

# Three compounds already listed, arranged by molar mass, smallest number first:
Compound,Potency,"activity change, negative = cytotoxicity"
O=C(CN1CCN(Cc2ccccc2)CC1)N/N=C/c1ccccc1F,inactive,–
Cc1ccc(NC(=O)Cn2c(=O)c(C(F)(F)F)nc3ccccc32)cc1C,inactive,–
CCOC(=O)c1ccccc1NC(=O)Cn1nnc2sc3c(c2c1=O)CCCC3,inactive,–

# (continued)

Compound,Potency,"activity change, negative = cytotoxicity"
CC(=O)N(Cc1ccco1)c1nc(C(=O)Nc2ccc(Cl)cc2)c(C)s1,"inconclusive: 11.6 µM [cytotoxic, partial curve]",–
CCCc1cc(=O)oc2c3c(c4c(c12)OC(C)(C)C=C4)OC(C)C(C)C3O (stereo not drawn),"inconclusive: 0.651 µM [cytotoxic, full curve, poor fit]",–
COCCN(CC(=O)NC1CCCCC1)C(=O)/C=C/C(=O)c1ccc(OC)cc1O,"inconclusive: 29.1 µM [cytotoxic, single point]",–
CCOc1ccc(NC(=O)N2CCC(c3nc4ccccc4[nH]3)CC2)cc1,"inconclusive: 2.59 µM [rising, full curve, poor fit]",–
NC(=NCCc1ccc(Cl)cc1)NS(=O)(=O)c1ccc(F)cc1,active: 14.6 µM,–
Cn1ccnc1CN1CCN(C(=O)c2cc(COc3ccc(F)c(F)c3)on2)CC1,"inconclusive: 20.6 µM [cytotoxic, single point]",–
COc1ccc(CNC(=O)C2CCCN(S(=O)(=O)N(C)c3ccc(F)cc3)C2)cc1OC (stereo not drawn),"inconclusive: 29.1 µM [cytotoxic, partial curve, poor fit]",–
CN(CC(=O)O)c1ccc(/C=C2\C=Cc3ccccc32)cc1,inactive,–
Cc1ccc(C)c(Cn2c(=O)n(CC3CCC(C(=O)N4CCOCC4)CC3)c(=O)c3sccc32)c1 (stereo not drawn),"inconclusive: 16.4 µM [cytotoxic, single point]",–
CCS(=O)(=O)c1ccc2oc(SCC(=O)c3c(N)n(C4CC4)c(=O)[nH]c3=O)nc2c1,–,inconclusive: 0%
CC(C(=O)c1ccc(Br)cc1)[n+]1cccc(NC(=O)c2ccccc2)c1 (stereo not drawn),"inconclusive: 18.4 µM [rising, single point]",–
Cc1ccc(/C=C/S(=O)(=O)NCCC(=O)NCc2ccc(F)cc2)cc1,inactive,–
COc1cccc(CN(C)C(=O)c2cccc(S(=O)(=O)N3CCN(Cc4ccccc4)CC3)c2)c1OC,"inconclusive: 3.26 µM [cytotoxic, full curve]",–
Cc1cccc(OCC(=O)Nc2ccccc2F)c1,"inconclusive: 10.3 µM [rising, partial curve]",–
COc1ccc2c(c1)c1c(c(=O)n(-c3ccc(C)cc3)c(=O)n1CC(=O)c1ccc(Cl)cc1)n2C,"inconclusive: 29.1 µM [rising, single point]",–
COc1ccc(NC(=O)Cn2cc(S(=O)(=O)N3CCC(C)CC3)c3ccccc3c2=O)cc1Cl,inactive,–
Cc1ccc(C)c(CNS(=O)(=O)c2ccc3c(c2)C(C)(C)C(=O)N3C)c1,"inconclusive: 29.1 µM [rising, single point]",–
Cc1ccccc1C(=O)Nc1cccc(OCc2cc(=O)n3c4c(sc3n2)CCCC4)c1,inactive,–
NNC(=O)c1cccc(Cn2cc(Br)c([N+](=O)[O-])n2)c1,inactive,–
CCN(Cc1ccccc1)c1ccc(/C=N/NS(=O)(=O)c2cccc([N+](=O)[O-])c2)cc1,active: 16.4 µM,–
CN(C)c1ccc(C2SCCN2C(=O)c2ccc([N+](=O)[O-])cc2)cc1 (stereo not drawn),"inconclusive: 16.4 µM [cytotoxic, partial curve]",–
O=C(c1ccc(S(=O)(=O)N2CCOCC2)cc1)N(Cc1ccco1)Cc1cccs1,"inconclusive: 23.1 µM [cytotoxic, partial curve]",–
